Laboratory results: the supplement of paper PMC10849652
Some of the results follow.

Sequences of proteins named here, by UniProt entry; tags and fusion partners are left off. A change or cut given only in a name is not applied to a line headed by its entry.
UniProt Q9BSF0: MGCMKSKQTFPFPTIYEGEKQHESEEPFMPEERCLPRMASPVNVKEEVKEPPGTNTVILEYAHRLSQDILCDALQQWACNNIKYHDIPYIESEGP
UniProt Q96B23: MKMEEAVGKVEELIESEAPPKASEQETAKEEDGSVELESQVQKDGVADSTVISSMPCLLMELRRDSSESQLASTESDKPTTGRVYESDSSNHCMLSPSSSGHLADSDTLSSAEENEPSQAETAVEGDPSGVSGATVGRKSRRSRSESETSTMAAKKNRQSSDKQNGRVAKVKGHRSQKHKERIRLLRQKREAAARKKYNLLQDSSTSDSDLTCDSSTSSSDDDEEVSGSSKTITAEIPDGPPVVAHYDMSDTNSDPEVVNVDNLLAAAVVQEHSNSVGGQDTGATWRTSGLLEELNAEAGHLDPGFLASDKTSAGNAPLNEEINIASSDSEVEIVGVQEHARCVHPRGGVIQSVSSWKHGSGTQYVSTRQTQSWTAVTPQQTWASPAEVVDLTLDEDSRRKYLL
UniProt O75808: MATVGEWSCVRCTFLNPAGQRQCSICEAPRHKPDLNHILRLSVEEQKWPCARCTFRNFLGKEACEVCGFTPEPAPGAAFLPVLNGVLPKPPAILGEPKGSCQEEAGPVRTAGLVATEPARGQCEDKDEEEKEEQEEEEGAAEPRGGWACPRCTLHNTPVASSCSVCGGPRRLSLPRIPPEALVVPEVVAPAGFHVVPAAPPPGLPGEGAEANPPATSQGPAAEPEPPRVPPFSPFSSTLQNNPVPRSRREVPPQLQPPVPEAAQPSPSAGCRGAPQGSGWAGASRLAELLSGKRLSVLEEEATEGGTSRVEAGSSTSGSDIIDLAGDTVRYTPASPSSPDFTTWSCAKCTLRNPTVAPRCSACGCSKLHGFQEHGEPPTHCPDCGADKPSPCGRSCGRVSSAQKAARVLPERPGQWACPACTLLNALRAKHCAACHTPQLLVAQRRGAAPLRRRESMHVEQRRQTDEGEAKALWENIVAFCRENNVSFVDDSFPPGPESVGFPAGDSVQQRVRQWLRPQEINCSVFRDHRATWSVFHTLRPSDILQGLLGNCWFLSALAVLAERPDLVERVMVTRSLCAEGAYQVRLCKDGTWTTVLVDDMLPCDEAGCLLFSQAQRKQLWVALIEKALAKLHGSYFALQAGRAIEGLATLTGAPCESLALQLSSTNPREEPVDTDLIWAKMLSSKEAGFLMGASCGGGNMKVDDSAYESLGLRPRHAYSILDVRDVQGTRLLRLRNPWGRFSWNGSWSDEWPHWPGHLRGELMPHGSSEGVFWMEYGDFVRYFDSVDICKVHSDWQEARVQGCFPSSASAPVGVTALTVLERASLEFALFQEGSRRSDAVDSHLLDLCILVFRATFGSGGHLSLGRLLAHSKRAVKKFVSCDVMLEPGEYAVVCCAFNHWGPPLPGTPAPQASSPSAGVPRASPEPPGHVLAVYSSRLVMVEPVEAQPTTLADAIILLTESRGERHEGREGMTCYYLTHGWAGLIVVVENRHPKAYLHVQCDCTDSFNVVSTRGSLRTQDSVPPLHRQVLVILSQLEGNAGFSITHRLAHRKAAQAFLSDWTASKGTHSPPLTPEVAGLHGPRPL
UniProt Q9Y376: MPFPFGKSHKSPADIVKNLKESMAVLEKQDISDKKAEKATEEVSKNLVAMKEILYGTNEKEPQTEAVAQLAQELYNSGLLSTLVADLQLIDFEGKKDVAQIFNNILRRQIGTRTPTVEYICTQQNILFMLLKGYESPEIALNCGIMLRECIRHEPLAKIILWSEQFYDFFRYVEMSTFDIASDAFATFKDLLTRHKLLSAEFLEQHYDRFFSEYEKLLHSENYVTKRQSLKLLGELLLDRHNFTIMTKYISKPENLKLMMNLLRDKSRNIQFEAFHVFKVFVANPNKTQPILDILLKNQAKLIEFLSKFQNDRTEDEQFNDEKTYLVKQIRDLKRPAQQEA
UniProt Q86VP6: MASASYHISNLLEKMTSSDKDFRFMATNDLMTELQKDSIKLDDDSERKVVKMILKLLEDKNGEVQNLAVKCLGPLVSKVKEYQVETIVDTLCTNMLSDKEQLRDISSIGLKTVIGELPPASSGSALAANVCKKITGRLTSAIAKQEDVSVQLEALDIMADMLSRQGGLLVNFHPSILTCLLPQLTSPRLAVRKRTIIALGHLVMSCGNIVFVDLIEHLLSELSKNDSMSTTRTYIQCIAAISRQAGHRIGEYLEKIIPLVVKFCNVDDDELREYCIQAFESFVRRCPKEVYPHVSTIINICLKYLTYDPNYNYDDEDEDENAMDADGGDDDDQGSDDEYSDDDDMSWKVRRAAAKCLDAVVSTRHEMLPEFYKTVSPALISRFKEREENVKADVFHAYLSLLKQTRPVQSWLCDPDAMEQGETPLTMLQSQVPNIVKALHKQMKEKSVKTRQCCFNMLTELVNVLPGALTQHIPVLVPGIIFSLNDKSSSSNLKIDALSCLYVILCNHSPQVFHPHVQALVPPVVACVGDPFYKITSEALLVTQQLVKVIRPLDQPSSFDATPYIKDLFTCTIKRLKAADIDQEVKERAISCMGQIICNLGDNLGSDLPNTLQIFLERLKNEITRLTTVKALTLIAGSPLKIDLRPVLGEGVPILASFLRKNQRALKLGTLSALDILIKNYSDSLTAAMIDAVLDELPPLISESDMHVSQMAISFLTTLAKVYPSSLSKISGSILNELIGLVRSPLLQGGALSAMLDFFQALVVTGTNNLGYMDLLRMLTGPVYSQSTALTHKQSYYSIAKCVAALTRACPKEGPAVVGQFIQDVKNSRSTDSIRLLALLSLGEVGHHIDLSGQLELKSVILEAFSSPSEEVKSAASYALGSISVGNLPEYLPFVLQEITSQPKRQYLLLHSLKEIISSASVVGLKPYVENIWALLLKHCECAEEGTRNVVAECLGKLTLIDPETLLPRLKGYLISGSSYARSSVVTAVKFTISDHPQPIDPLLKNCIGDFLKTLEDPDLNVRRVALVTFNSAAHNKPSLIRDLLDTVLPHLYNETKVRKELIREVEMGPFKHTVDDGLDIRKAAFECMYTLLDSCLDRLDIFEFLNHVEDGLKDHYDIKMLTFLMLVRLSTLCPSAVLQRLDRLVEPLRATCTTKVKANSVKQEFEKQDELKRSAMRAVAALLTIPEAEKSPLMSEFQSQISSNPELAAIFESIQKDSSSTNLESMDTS
UniProt P27797, whole entry, looked up: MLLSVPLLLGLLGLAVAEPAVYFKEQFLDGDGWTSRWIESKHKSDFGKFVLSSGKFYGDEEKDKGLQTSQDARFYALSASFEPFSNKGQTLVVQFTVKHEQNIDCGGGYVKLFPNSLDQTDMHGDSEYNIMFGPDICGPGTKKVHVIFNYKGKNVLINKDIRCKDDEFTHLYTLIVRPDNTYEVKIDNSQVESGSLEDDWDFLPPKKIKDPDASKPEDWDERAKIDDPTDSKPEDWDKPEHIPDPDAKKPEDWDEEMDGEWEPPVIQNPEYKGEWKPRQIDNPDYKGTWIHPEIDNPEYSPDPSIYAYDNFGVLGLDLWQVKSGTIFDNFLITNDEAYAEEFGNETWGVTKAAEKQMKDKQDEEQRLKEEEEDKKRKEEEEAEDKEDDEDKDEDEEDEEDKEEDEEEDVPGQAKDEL
UniProt Q9BUW7: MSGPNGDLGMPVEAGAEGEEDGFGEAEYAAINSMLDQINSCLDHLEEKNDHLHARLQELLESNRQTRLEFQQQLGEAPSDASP
UniProt Q01518, whole entry, looked up: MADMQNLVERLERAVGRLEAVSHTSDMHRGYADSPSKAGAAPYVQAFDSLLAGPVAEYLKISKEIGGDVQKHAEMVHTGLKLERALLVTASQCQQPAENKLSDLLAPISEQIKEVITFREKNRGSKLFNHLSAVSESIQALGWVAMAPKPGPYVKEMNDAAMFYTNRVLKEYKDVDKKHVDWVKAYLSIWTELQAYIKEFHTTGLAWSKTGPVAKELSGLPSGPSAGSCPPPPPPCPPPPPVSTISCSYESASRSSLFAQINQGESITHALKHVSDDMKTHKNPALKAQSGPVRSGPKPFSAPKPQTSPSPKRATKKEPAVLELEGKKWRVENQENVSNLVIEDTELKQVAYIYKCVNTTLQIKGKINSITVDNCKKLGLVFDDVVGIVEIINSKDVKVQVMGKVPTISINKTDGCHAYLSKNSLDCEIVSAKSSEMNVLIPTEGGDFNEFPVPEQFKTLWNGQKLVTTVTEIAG
UniProt Q13137: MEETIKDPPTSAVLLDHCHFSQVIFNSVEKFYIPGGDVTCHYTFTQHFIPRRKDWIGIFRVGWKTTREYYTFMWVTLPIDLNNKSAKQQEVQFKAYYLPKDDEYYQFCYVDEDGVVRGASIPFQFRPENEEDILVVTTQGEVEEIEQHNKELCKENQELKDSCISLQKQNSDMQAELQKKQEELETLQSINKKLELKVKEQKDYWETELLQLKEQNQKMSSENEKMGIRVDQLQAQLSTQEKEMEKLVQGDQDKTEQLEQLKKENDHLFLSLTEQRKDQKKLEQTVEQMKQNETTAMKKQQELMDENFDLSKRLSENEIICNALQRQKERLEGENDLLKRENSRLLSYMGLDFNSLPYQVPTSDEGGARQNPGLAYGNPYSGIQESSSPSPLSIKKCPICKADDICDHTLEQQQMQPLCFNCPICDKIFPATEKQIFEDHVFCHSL
UniProt O60566, whole entry, looked up: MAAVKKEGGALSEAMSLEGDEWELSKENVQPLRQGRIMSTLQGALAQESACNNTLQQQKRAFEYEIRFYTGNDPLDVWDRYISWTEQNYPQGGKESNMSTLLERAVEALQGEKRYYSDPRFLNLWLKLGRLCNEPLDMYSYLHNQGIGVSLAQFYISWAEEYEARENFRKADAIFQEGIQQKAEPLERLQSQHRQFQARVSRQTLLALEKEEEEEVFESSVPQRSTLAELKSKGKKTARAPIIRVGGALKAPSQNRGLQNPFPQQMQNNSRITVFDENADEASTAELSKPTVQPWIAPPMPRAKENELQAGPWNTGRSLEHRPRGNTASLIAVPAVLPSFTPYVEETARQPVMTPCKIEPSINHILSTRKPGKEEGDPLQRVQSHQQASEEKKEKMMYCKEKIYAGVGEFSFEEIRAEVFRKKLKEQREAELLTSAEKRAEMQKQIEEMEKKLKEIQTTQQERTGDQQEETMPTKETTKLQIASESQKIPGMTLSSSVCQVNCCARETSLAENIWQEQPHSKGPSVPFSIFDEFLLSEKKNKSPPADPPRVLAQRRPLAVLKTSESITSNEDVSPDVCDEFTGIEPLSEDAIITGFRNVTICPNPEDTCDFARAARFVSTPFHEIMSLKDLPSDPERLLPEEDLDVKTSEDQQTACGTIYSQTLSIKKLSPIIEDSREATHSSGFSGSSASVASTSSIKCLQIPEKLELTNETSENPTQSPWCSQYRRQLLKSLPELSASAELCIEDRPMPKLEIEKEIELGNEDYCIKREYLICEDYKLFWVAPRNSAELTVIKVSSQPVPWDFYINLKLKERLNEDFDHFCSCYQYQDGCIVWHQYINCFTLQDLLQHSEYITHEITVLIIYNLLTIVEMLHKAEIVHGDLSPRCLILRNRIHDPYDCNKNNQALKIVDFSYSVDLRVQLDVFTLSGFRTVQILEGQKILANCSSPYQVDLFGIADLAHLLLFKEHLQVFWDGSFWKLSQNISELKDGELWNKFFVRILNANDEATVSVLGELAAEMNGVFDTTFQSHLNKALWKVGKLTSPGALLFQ
UniProt Q5JPI3: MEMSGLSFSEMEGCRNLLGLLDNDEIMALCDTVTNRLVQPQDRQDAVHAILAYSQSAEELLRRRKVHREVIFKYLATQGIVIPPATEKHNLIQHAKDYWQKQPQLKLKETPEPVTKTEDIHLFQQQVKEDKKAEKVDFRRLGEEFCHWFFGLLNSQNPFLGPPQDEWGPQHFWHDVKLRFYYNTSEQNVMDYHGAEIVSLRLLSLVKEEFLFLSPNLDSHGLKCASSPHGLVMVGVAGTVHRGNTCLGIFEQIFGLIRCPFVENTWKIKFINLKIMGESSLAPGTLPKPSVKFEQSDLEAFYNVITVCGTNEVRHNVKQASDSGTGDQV
UniProt Q96GQ5: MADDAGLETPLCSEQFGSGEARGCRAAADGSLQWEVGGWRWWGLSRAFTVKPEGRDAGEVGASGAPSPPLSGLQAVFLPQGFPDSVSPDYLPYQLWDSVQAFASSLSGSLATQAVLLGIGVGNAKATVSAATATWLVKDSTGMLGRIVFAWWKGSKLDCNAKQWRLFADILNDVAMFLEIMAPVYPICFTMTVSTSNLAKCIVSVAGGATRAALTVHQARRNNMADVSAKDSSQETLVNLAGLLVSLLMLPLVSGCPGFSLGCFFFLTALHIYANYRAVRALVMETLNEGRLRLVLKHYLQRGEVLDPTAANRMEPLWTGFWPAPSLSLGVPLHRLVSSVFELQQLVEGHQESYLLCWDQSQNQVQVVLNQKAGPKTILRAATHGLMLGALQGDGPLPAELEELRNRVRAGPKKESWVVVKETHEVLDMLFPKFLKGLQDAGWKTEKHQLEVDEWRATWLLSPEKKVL
UniProt Q9NWQ9: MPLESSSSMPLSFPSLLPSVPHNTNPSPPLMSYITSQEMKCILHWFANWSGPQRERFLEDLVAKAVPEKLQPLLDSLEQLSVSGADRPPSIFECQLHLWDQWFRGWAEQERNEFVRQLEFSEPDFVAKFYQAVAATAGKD

Experiments:
Assay in all cases: log2 fold change, soluble protein after heating vs DMSO (PISA); higher = thermal stabilisation; K562 lysate, 10 uM; active = over 0.2 and 3.5 SD of the protein, either way, in both replicates (recomputed)
alvocidib = compound: CN1CC[C@H](c2c(O)cc(O)c3c(=O)cc(-c4ccccc4Cl)oc23)[C@H](O)C1 [alvocidib]
In short: (§1)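 The values are log-two fold changes in thermal stability compared with solvent controls and come from duplicates. They were obtained by TMTpro 16plex LC-MS/MS, with channel sums equalised, on the supernatant after 21,000xg for 90 min. That supernatant came from crude K562 extract at 1 mg/mL protein treated with 10 μM compound for 30 min, heated for 3 min across 48°C-58°C, pooled and brought to 0.5% NP-40 at 4°C.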

Tubastatin A = compound: CN1CCc2c(c3ccccc3n2Cc2ccc(C(=O)NO)cc2)C1 [Tubastatin A]
In short: as §1

[1] = compound: CNC(=O)C1=CC=CC=C1NC2=NC(=NC=C2Cl)NC3=C(C=C(C=C3)N4CCOCC4)OC
In short: as §1

defactinib = compound: CNC(=O)c1ccc(Nc2ncc(C(F)(F)F)c(NCc3nccnc3N(C)S(C)(=O)=O)n2)cc1 [defactinib]
In short: as §1

[2] = compound: CNc1nc(-c2ccc3c(N)n[nH]c3c2)cc(N2C[C@@H](C(=O)NC3CCCCC3)CC[C@H]2C)n1
In short: as §1

encorafenib = compound: COC(=O)N[C@@H](C)CNc1nccc(-c2cn(C(C)C)nc2-c2cc(Cl)cc(NS(C)(=O)=O)c2F)n1 [encorafenib]
In short: as §1

[3] = compound: COC(=O)[C@H](CCSC)NC(=O)C1=C(C=C(C=C1)NC[C@H](CS)N)C2=CC=CC=C2
In short: as §1

alisertib = compound: COc1cc(Nc2ncc3c(n2)-c2ccc(Cl)cc2C(c2c(F)cccc2OC)=NC3)ccc1C(=O)O [alisertib]
In short: as §1

[4] = compound: COc1cc2nc(-c3cc(F)ccc3O)nc(N[C@@H]3CNC[C@H]3C(C)(C)O)c2cc1OC
In short: as §1

gefitinib = compound: COc1cc2ncnc(Nc3ccc(F)c(Cl)c3)c2cc1OCCCN1CCOCC1 [gefitinib]
In short: as §1

Measured: log2 fold change

C15orf40 (UniProt Q8WUR7)
inactive: alvocidib -0.032 | Tubastatin A 0.093 | [1] 0.067 | defactinib -0.035 | [2] 0.02 | encorafenib -0.005 | [3] -0.058 | alisertib -0.091 | [4] 0.011 | gefitinib 0.104

CACYBP (UniProt Q9HB71)
inactive: alvocidib -0.004 | Tubastatin A 0.058 | [1] -0.001 | defactinib -0.054 | [2] 0.011 | encorafenib -0.038 | [3] -0.039 | alisertib 0.008 | [4] 0.011 | gefitinib 0.003

C12orf45 (UniProt Q8N5I9)
inactive: alvocidib -0.13 | Tubastatin A 0.007 | [1] 0.004 | defactinib -0.042 | [2] 0.036 | encorafenib 0.05 | [3] -0.06 | alisertib 0.016 | [4] 0.01 | gefitinib 0.011

CAPZA1 (UniProt P52907)
inactive: alvocidib 0.021 | Tubastatin A 0.047 | [1] 0.024 | defactinib 0.003 | [2] 0.033 | encorafenib 0.006 | [3] -0.001 | alisertib 0.01 | [4] -0.001 | gefitinib -0.018

C2orf88 (UniProt Q9BSF0)
inactive: alvocidib 0.068 | Tubastatin A -0.136

C18orf25 isoform 2 (UniProt Q96B23)
inactive: alvocidib 0.1 | Tubastatin A 0.106 | [1] 0.1 | defactinib 0.072 | [2] 0.043 | encorafenib 0.033 | [3] -0.084 | alisertib 0.058 | [4] 0.031 | gefitinib 0.034

CAPN15 (UniProt O75808)
inactive: alvocidib -0.01 | Tubastatin A -0.043 | [1] 0.001 | defactinib -0.014 | [2] 0.19 | encorafenib -0.029 | [3] 0.03 | alisertib -0.03 | [4] 0.024 | gefitinib -0.024

C18orf32 (UniProt Q8TCD1)
inactive: alvocidib 0.049 | Tubastatin A 0.035 | [1] 0.084 | defactinib 0.144 | [2] 0 | encorafenib 0.168 | [3] -0.316 | alisertib 0.043 | [4] -0.019 | gefitinib -0.249

C1orf198 (UniProt Q9H425)
inactive: alvocidib -0.016 | Tubastatin A 0.002 | [1] 0.097 | defactinib -0.054 | [2] -0.05 | encorafenib 0.025 | [3] -0.148 | alisertib 0.183 | [4] 0.021 | gefitinib 0.147

CAB39 (UniProt Q9Y376)
inactive: alvocidib 0.003 | Tubastatin A 0.033 | [1] -0.02 | defactinib -0.009 | [2] -0.013 | encorafenib -0.007 | [3] -0.032 | alisertib -0.012 | [4] 0.006 | gefitinib 0.005

C2CD5 isoform 3 (UniProt Q86YS7)
inactive: alvocidib -0.157 | Tubastatin A 0.006 | [1] -0.003 | defactinib -0.002 | [2] 0.01 | encorafenib 0.054 | [3] -0.028 | alisertib -0.016 | [4] 0.016 | gefitinib 0.054

CAND1 (UniProt Q86VP6)
inactive: alvocidib -0.041 | Tubastatin A 0.031 | [1] -0.008 | defactinib -0.005 | [2] 0.002 | encorafenib 0 | [3] -0.04 | alisertib -0.015 | [4] 0.015 | gefitinib -0.013

CA13 (UniProt Q8N1Q1)
inactive: alvocidib 0.026 | Tubastatin A 0.045 | [1] 0.022 | defactinib -0.044 | [2] -0.023 | encorafenib -0.032 | [3] -0.017 | alisertib 0 | [4] 0.036 | gefitinib -0.069

CALR (UniProt P27797)
inactive: alvocidib 0.042 | Tubastatin A 0 | [1] -0.011 | defactinib 0.002 | [2] -0.008 | encorafenib -0.024 | [3] -0.008 | alisertib -0.016 | [4] -0.007 | gefitinib -0.024

C9orf16 (UniProt Q9BUW7)
inactive: alvocidib 0.138 | Tubastatin A -0.056 | [1] 0.088 | defactinib -0.02 | [2] -0.018 | encorafenib -0.026 | [3] 0.034

C7orf26 (UniProt Q96N11)
inactive: alvocidib 0.08 | Tubastatin A 0.005 | [1] 0.011 | defactinib -0.065 | [2] 0.069 | encorafenib 0.005 | [3] 0.051 | alisertib -0.244 | [4] 0.054 | gefitinib 0.219

CAP1 (UniProt Q01518)
inactive: alvocidib 0.02 | Tubastatin A 0.042 | [1] -0.019 | defactinib 0 | [2] 0.085 | encorafenib -0.029 | [3] 0.02 | alisertib 0 | [4] -0.003 | gefitinib -0.038

C11orf54 (UniProt Q9H0W9)
inactive: alvocidib -0.004 | Tubastatin A 0.04 | [1] -0.019 | defactinib -0.027 | [2] -0.015 | encorafenib -0.016 | [3] -0.038 | alisertib -0.006 | [4] 0.026 | gefitinib -0.041

2 consecutive entries already listed, quoted:
C7orf26 (UniProt Q96N11)
inactive: alvocidib 0.08 | Tubastatin A 0.005 | [1] 0.011 | defactinib -0.065 | [2] 0.069 | encorafenib 0.005 | [3] 0.051 | alisertib -0.244 | [4] 0.054 | gefitinib 0.219

CAP1 (UniProt Q01518)
inactive: alvocidib 0.02 | Tubastatin A 0.042 | [1] -0.019 | defactinib 0 | [2] 0.085 | encorafenib -0.029 | [3] 0.02 | alisertib 0 | [4] -0.003 | gefitinib -0.038

Further entries

CALCOCO2 isoform 4 (UniProt Q13137)
inactive: alvocidib 0.002 | Tubastatin A -0.002 | [1] 0.014 | defactinib -0.044 | [2] -0.007 | encorafenib 0.014 | [3] -0.067 | alisertib -0.009 | [4] -0.003 | gefitinib -0.013

C8orf82 (UniProt Q6P1X6)
inactive: alvocidib -0.011 | Tubastatin A 0.08 | [1] 0.026 | defactinib -0.013 | [2] 0.095 | encorafenib -0.004 | [3] -0.119 | alisertib -0.09 | [4] 0.018 | gefitinib 0.07

C11orf24 (UniProt Q96F05)
inactive: alvocidib -0.086 | Tubastatin A -0.371

CA8 (UniProt P35219)
inactive: alvocidib 0.042 | Tubastatin A -0.035 | [1] 0.023 | defactinib -0.021 | [2] -0.01 | encorafenib -0.012 | [3] -0.011 | alisertib 0.02 | [4] 0.01 | gefitinib -0.026

BUB1B isoform 3 (UniProt O60566)
inactive: alvocidib -0.032 | Tubastatin A -0.122 | [1] 0.018 | defactinib -0.012 | [2] 0.018 | encorafenib 0.033 | [3] 0.018 | alisertib 0.002 | [4] 0.011 | gefitinib -0.005

C7orf50 (UniProt Q9BRJ6)
inactive: alvocidib 0.014 | Tubastatin A -0.039 | [1] -0.063 | defactinib -0.012 | [2] -0.105 | encorafenib 0.027 | [3] -0.008 | alisertib 0.044 | [4] -0.011 | gefitinib 0.038

C3orf38 (UniProt Q5JPI3)
inactive: alvocidib -0.076 | Tubastatin A 0.01 | [1] 0.05 | defactinib 0.038 | [2] 0.033 | encorafenib 0.03 | [3] -0.038 | alisertib -0.013 | [4] 0.05 | gefitinib -0.041

CAD (UniProt P27708)
inactive: alvocidib 0 | Tubastatin A -0.063 | [1] 0.01 | defactinib -0.022 | [2] -0.008 | encorafenib 0.001 | [3] 0.067 | alisertib -0.007 | [4] -0.015 | gefitinib -0.032

C16orf58 (UniProt Q96GQ5)
inactive: alvocidib 0 | Tubastatin A 0.174 | [1] -0.063 | defactinib 0.01 | [2] 0.025 | encorafenib 0.017 | [3] 0.018 | alisertib -0.005 | [4] -0.03 | gefitinib 0.016

C4orf33 (UniProt Q8N1A6)
inactive: alvocidib -0.025 | Tubastatin A 0.006 | [1] 0.011 | defactinib 0.043 | [2] 0 | encorafenib 0.028 | [3] -0.053 | alisertib -0.071 | [4] 0 | gefitinib -0.014

BZW2 (UniProt Q9Y6E2)
inactive: alvocidib 0.049 | Tubastatin A 0.009 | [1] -0.037 | defactinib 0.015 | [2] -0.018 | encorafenib 0.018 | [3] -0.023 | alisertib 0.015 | [4] -0.005 | gefitinib -0.033

CALCOCO1 (UniProt Q9P1Z2)
inactive: alvocidib 0.011 | Tubastatin A -0.086 | [1] 0.038 | defactinib -0.039 | [2] 0 | encorafenib 0.144 | [3] 0.026 | alisertib -0.01 | [4] -0.011 | gefitinib 0.088

C18orf25 (UniProt Q96B23)
inactive: alvocidib -0.014 | Tubastatin A 0.123 | [1] 0.034 | defactinib 0.084 | [2] 0.041 | encorafenib -0.005 | [3] -0.067 | alisertib 0.019 | [4] -0.027 | gefitinib 0.029

C14orf119 (UniProt Q9NWQ9)
inactive: alvocidib 0.041
